Measurements published in patent publication US20250152567A1, “COMPOUNDS FOR USE IN THE TREATMENT OF DYSTROPHINOPATHIES” (SOM INNOVATION BIOTECH, S.A., priority 2022, published 2025).
Some of these results come from one statement about several compounds together.

System: utrophin
Experiment: Utrophin expression by immunohistochemistry in human DMD 3D skeletal muscle tissues
Assay type: cell-based
Settings: 10 μM, 2 days, immunohistochemistry of muscle slices (FIG. 4)

Row | Structure (SMILES) | Utrophin expression, fold increase of fluorescence values vs DMSO
1 | O=C(Cc1ccc(-c2ccccc2)cc1)Nc1ccccn1 [Difenpiramide] | up to 3 fold
2 | O=C(O)[C@@H](c1ccc(OCc2ccc3ccccc3n2)cc1)C1CCCC1 [Veliflapon] | up to 3 fold
